{
  "sequences": {"note": "By UniProt entry, the sequences of proteins in these tests, tags left out.", "UniProt Q08828, whole entry": "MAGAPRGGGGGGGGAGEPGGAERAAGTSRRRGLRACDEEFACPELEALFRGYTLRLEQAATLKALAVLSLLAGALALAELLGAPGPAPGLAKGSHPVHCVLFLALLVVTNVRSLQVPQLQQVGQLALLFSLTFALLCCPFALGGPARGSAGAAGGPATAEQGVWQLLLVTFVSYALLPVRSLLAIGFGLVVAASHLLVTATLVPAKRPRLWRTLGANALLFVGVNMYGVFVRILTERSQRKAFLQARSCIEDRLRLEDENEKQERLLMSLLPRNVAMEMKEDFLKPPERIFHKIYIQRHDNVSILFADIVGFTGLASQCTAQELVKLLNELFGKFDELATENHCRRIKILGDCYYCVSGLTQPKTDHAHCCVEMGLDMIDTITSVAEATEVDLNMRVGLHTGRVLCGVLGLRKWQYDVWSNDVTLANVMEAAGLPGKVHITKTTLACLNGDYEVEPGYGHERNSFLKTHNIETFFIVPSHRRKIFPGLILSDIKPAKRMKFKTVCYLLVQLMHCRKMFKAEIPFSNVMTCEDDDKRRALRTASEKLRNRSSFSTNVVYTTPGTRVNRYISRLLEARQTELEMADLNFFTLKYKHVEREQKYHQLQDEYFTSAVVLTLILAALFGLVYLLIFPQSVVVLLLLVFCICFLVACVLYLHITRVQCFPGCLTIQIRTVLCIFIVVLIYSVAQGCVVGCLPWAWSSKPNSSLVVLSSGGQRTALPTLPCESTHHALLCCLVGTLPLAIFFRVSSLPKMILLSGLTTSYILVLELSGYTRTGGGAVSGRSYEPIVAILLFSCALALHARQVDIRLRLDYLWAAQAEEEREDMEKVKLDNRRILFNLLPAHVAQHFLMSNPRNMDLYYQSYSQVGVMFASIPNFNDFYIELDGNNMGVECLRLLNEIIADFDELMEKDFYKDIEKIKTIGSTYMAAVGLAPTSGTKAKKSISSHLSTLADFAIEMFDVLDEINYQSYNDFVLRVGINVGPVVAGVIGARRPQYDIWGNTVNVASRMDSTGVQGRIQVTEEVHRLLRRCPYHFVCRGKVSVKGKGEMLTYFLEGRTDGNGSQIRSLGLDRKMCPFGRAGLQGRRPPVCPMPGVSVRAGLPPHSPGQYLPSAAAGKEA"},
  "source": "patent US11667623B2",
  "about": "“Scaffold of adenylyl cyclase inhibitors for chronic pain and opioid dependence” (Purdue Research Foundation, priority 2017, dated 2023)",
  "target": "hAC1 (Homo sapiens, UniProt Q08828)",
  "assay": "Cyclic AMP accumulation (HTRF) in HEK cells stably expressing AC1, stimulated with A23187",
  "details": "AC8 IC50/AC1 IC50; without AC8 IC50, estimate based on IC50 ≥30 μM",
  "note": "Not every entry of the source has a single result; some have several. This list holds those alone. The source may hold further records. Results that share an entry differ, and nothing given here explains why; they may come from other doses, times, organisms or constructs than stated.",
  "data": [
    {"smiles": "CCc1cc(=O)[nH]c(-n2nc(C)cc2NC(=O)c2ccccc2F)n1", "values": [
      {"measurement": "Selectivity AC1 vs AC8", "value": "at least 60 fold and >60-fold"}
    ]}
  ]
}
